From article PMC9345960, “ERK1/2 inhibits Cullin 3/SPOP-mediated PrLZ ubiquitination and degradation to modulate prostate cancer progression” (Cell Death and Differentiation, 2022)

By UniProt entry, the sequences of proteins in these tests, tags left out. Where a name states a change or a piece, a line headed by the entry shows the natural chain unless it says otherwise.
UniProt O43791: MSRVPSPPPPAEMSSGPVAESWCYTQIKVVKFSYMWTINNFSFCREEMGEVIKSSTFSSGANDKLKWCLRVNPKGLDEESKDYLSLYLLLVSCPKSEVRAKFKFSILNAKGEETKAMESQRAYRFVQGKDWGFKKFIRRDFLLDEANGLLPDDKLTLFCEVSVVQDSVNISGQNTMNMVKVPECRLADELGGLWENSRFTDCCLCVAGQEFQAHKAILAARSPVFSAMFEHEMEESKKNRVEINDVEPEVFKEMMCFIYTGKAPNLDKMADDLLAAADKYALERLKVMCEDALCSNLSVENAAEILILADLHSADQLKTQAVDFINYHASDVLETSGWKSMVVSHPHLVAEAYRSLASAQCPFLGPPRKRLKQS

Biological target: HA-SPOP F133V (UniProt O43791)
Assay: co-IP; anti-HA agarose IP (4 h, 4 °C, EBC lysis buffer) from transfected 293T cells: HA-PrLZ with Flag-tagged BTB proteins (Fig. 2a), HA-SPOP WT or mutants with Flag-PrLZ (Fig. 3d), HA-ERK1 or HA-ERK2 with Flag-PrLZ (Fig. 5e); in some panels 20 μM MG132 for 6 h

B1: GST-PrLZ, wild type (bacterial) (natural protein, UniProt P55327 1-224, looked up)
chain: MDCREMDLYEDYQSPFDFDAGVNKSYLYLSPSGNSSPPGSPTLQKFGLLRTDPVPEEGEDVAATISATETLSEEEQEELRRELAKVEEEIQTLSQVLAAKEKHLAEIKRKLGINSLQELKQNIAKGWQDVTATSAYKKTSETLSQAGQKASAAFSSVGSVITKKLEDVKNSPTFKSFEEKVENLKSKVGGTKPAGGDFGEVLNSAANASATTTEPLPEKTQESL
notes: Prostate Leucine Zipper (PrLZ); also called GST-PrLZ WT; pGEX-4T-1-GST-PrLZ; source: E. coli BL21, purified (Glutathione Sepharose 4B)
binding: no binding

No constants are given. Whether binding was seen depends on the method and setting. Binding seen in cells or lysates may run through a third protein. Where a sequence is shown, tags or fusion partners need not be part of it.
